Where “and” joins values, the source holds several entries; their conditions need not be identical. Identical values can stand only once. The whole screen tested about 300,000 compounds, of which about 5,400 (1.8%) were called active. Inconclusive results, whose numbers are uncertain, are shown with a selection of clear calls. Calls follow the shape of the full dose curve; tested in HEK293 cells. Potencies beside an inconclusive call are fits to weak or partial responses and may not hold up.
assay: qHTS for inhibitors of binding or entry into cells for Marburg Virus; details: Marburg virus pseudotyped entry inhibition, cell reporter; activity change, negative = inhibition: at 37.8 µM (top of the series) unless noted
% is scaled to controls: 0 for no effect and ±100 for the full control effect; potency is read from the fitted curve at half-maximal effect.

Row | SMILES | Potency | activity change, negative = inhibition
1 | Cc1csc(NC(=O)c2cn3ccccc3n2)n1 | inconclusive: 2.82 µM [inhibitor, full curve] | –
2 | O=C(CCCC(=O)N(CC(=O)NC1CCCC1)Cc1ccccc1Cl)Nc1ccccn1 | inconclusive: 1.12 µM [inhibitor, partial curve, poor fit] | –
3 | CCOc1ccc(NC(=O)CCSc2nc3c(c(CC)c2C#N)C(=O)CC(C)(C)C3)cc1 | inconclusive: 35.5 µM [inhibitor, single point] | –
4 | CCOC(=O)CC1(c2ccc(OC)c(OC)c2)C(=O)c2ccccc2C1=O | inconclusive: 6.31 µM [activator, partial curve, poor fit] | –
5 | Cc1cc(C)c2c(N)c(C(=O)Nc3nccs3)sc2n1 | inconclusive: 10.3 µM [inhibitor, partial curve, poor fit] | –
6 | CNC(=O)C(=O)Nc1c(C)cc(C)cc1C | inconclusive: 0.1 µM [inhibitor, partial curve, poor fit] | –
7 | CCOC(=O)c1cccc(NC(=O)C2CCCN(S(=O)(=O)c3c(C)n[nH]c3C)C2)c1 (stereo unspecified) | – | inactive: -1.65% [at 46.1 µM]
8 | Cc1nn(C)cc1NC(=O)Cn1nc(C(F)(F)F)cc1C1CC1 | – | inactive: 5.65%
9 | NC(=O)c1sc2nc3c(c(-c4cccs4)c2c1N)CCCCC3 | – | inactive: -6.2%
10 | Cc1cc(C)cc(NC(=O)Cn2cc3c(n2)CCCCC3)c1 | – | inactive: -0.668%
11 | COc1cc(NC(=O)COc2ccc(-n3cnnn3)cc2)c(OC)cc1Cl | inconclusive: 6.51 µM [inhibitor, single point] | –
12 | O=c1cc(-c2ccccc2)nc2cc(-c3ccc(F)cc3)[nH]n12 | inactive and inconclusive: 11.2 µM [inhibitor, partial curve, poor fit] | –
13 | Cc1ccc(S(=O)(=O)N2CCc3cc(C(=O)Nc4ccc(C)c(C)c4)ccc32)cc1 | – | inactive: -12.9% [at 46.1 µM]
14 | CCC(C)(C)NC(=O)C(c1ccc(C)cc1)N(CCN1CCOCC1)C(=O)CNC(=O)c1cccs1 (stereo unspecified) | inconclusive: 0.631 µM [inhibitor, full curve, poor fit] | –
15 | Cc1ccc(C(=O)NN=Cc2ccc3c(c2)OCO3)cc1 | inconclusive: 3.16 µM [activator, partial curve, poor fit] | –
16 | O=C(c1ccc2c(=O)n(-c3ccccc3)c(=S)[nH]c2c1)N1CCCCC1 | inconclusive: 2.82 µM [inhibitor, full curve, poor fit] | –
17 | O=C(c1ccccc1)n1nc(-c2ccco2)nc1NCc1cccs1 | – | inconclusive: 8.8% [activator] [at 46.1 µM]
18 | COc1ccc(CNC(=O)CCN2C(=S)NC(C)(C)CC2C)cc1 (stereo unspecified) | inconclusive: 6.31 µM [activator, single point] | –
19 | CCS(=O)(=O)c1ccc2oc(Nc3ccccc3Br)nc2c1 | – | inactive: -2.97% [at 46.1 µM]
20 | COc1ccc(/C=C/C(=O)NCc2cn(C)nc2C)cc1COc1ccc(Br)cc1 | – | inactive: -19.8%
21 | CN(C)c1ccc(/C=N\S(=O)(=O)c2ccccc2)cc1 | inconclusive: 6.31 µM [inhibitor, partial curve, poor fit] | –
22 | Cc1nnc(SCc2nc(-c3ccc(Cl)cc3)no2)n1-c1ccc(F)cc1 | inconclusive: 3.16 µM [activator, partial curve, poor fit] | –

Row | SMILES | Potency | activity change, negative = inhibition
23 | CN(C)/C=N/C(=S)Nc1ccccc1 | – | inactive: 1.05% [at 46.1 µM]
24 | CCc1ccc2nc(N(CCCN(C)C)C(=O)c3ccc(S(=O)(=O)N(C)C4CCCCC4)cc3)sc2c1 | inconclusive: 7.94 µM [inhibitor, partial curve, poor fit] | –
25 | COc1ccccc1NC(=O)Cn1c(=O)n(CCc2ccccc2)c(=O)c2c3c(sc21)CN(C(C)=O)CC3 | inconclusive: 35.5 µM [inhibitor, single point] | –
26 | O=C(NNC(=O)c1cccc2ccccc12)c1ccc(Cl)cc1Cl | – | inactive: -7.12% [at 46.1 µM]
27 | CCCc1cc(C(=O)N2CCC(N3CCC(C(=O)NC(C)C)CC3)CC2)n(C)n1 | inconclusive: 8.91 µM [activator, partial curve, poor fit] | –
28 | Cc1cccc(-c2nnc3sc(-c4ccccc4C)nn23)c1 | inconclusive: 29.1 µM [inhibitor, single point] | –
29 | CCn1c(=O)n(CC)c2cc(N3CCCC3)c(NC(=O)c3ccccc3OC)cc21 | inconclusive: 10 µM [inhibitor, partial curve, poor fit] | –
30 | COC(=O)c1ccc(CO/N=C2\CCCc3nonc32)cc1 | inconclusive: 35.5 µM [activator, single point] | –
31 | CCCN(CC(=O)NC(=O)NC1CCCCC1)CC(=O)Nc1cc(Cl)ccc1Cl | inconclusive: 15.8 µM [inhibitor, partial curve, poor fit] | –
32 | O=C1NC2c3c(Cl)sc(Cl)c3C(=O)C2O1 (stereo unspecified) | inconclusive: 25.1 µM [inhibitor, single point] | –
33 | COc1cc(O)c(C(=O)/C=C/c2ccccc2)c(O)c1 | inconclusive: 0.106 µM [inhibitor, full curve, poor fit] | –
34 | Cc1oc2nc(SCC(=O)Nc3ccc(S(N)(=O)=O)cc3)nc(NC(=O)c3ccccc3)c2c1C | inconclusive: 10.3 µM [inhibitor, partial curve, poor fit] | –
35 | CCCC(C)C1(CC)C(=O)NC(=Nc2ccccc2)NC1=O (stereo unspecified) | inconclusive: 2.91 µM [activator, full curve, poor fit] | –
36 | O=C1OCCC1Sc1nnc(-c2cccs2)n1Cc1ccccc1 (stereo unspecified) | inconclusive: 6.51 µM [activator, single point] | –
37 | Cc1nc(N2CCN(C(=O)c3ccc(Cl)cc3)CC2)c(C#N)c2c1COC(C)(C)C2 | inconclusive: 22.4 µM [inhibitor, single point] | –
38 | CCSc1nsc(NC(=O)Nc2ccccc2OC)n1 | inconclusive: 0.562 µM [inhibitor, full curve, poor fit] | –
39 | COc1ccc(CN(CCC(c2ccccc2)c2ccc(OC(C)C)cc2)C(=O)CCl)cc1OC (stereo unspecified) | inconclusive: 12.6 µM [inhibitor, single point] | –
40 | O=C(NC1CCc2ccccc21)c1cc(COc2cncc(Cl)c2)on1 (stereo unspecified) | – | inactive: 24% [at 46.1 µM]
41 | Cc1cccc(/C(N)=N/OC(=O)c2ccc3c(c2)OCO3)c1 | inconclusive: 11.2 µM [inhibitor, partial curve, poor fit] | –
42 | CCOc1ccccc1N1C(=O)CC(Sc2n[nH]c(-c3ccccc3)n2)C1=O (stereo unspecified) | – | inactive: 1.69% [at 46.1 µM]
43 | O=C(c1cccc(C(F)(F)F)c1)N1CCOC12CCN(c1ncc(C(F)(F)F)cc1Cl)CC2 | inconclusive: 7.94 µM [inhibitor, partial curve, poor fit] | –
44 | O=C(Cc1ccccc1)c1ccccc1C(=O)N1CCCCC1 | inconclusive: 5.62 µM [activator, single point] | –

Row | SMILES | Potency | activity change, negative = inhibition
45 | CC(=O)c1cccc(NC(=O)CSc2ccc(-c3ccccn3)nn2)c1 | inconclusive: 12.6 µM [inhibitor, partial curve, poor fit] | –
46 | CC(Sc1ncccn1)C(=O)Nc1ccc2c(c1)OCO2 (stereo unspecified) | – | inactive: -1.11%
47 | COc1cccc(C(=O)N(Cc2ccc(N(C)C)cc2)C2CCS(=O)(=O)C2)c1 (stereo unspecified) | – | inactive: 16.8% [at 46.1 µM]
48 | c1cc2c3c(cccc3c1)NC1(CCCCC1)N2 | – | inactive: -0.298%
49 | C/C(=N\NC(=S)Nc1cc(S(=O)(=O)N2CCOCC2)ccc1Cl)c1ccccc1F | inconclusive: 8.91 µM [inhibitor, partial curve, poor fit] | –
50 | N#C/C(=C\c1cc(O)c(O)c(O)c1)C(N)=O | – | inactive: 1.3%
51 | COc1ccc(O)c(C2Nc3ccccc3-n3c(-c4ccccc4)c4c(=O)n(C)c(=O)n(C)c4c32)c1 (stereo unspecified) | – | inactive: 2.15% [at 46.1 µM]
52 | Cc1ccc(C(=O)OCC(=O)NC2CCCC2)cc1C | inconclusive: 22.4 µM [activator, single point] | –
53 | Cc1ccccc1C(=O)Nc1ccccc1N1CCN(C(=O)c2ccccc2)CC1 | inconclusive: 3.16 µM [inhibitor, single point] | –
54 | Cc1ccccc1C(=O)Nc1ccc(S(=O)(=O)N2CC(C)OC(C)C2)cc1 (stereo unspecified) | inconclusive: 20 µM [inhibitor, partial curve, poor fit] | –
55 | CCN1/C(=C2\C(=O)N(C)C(=S)N2C)C=Cc2cc(C)ccc21 | – | inactive: 15.9%
56 | COc1cccc(CNC(=O)C(NS(=O)(=O)c2ccc3c(c2)oc(=O)n3C)C(C)C)c1 (stereo unspecified) | – | inactive: 0.524% [at 46.1 µM]
57 | Cc1cc(C)c(C(=O)COC(=O)CNC(=O)c2ccccc2C)c(C)c1 | inconclusive: 7.08 µM [activator, full curve, poor fit] | –
58 | CN(C)S(=O)(=O)c1cccc(NC(=O)c2ccncc2)c1 | inconclusive: 35.5 µM [inhibitor, single point] | –
59 | CCOC(=O)C1(Cc2cccc(OC)c2)CCN(Cc2cccc(O)c2)CC1 | inconclusive: 15.8 µM [inhibitor, single point] | –
60 | O=C(c1ccc(COc2ccccc2Br)cc1)N1CCCCC1 | – | inactive: 17.8%
61 | O=[N+]([O-])c1cccc(-c2ccc(C(=S)N3CCN(c4ccc(F)cc4)CC3)o2)c1 | inconclusive: 31.6 µM [activator, single point] | –
62 | C=CCc1cccc(/C=N/NC(=O)C(C)Nc2ccc(C)cc2)c1O (stereo unspecified) | inconclusive: 25.9 µM [inhibitor, partial curve, poor fit] | –
63 | CC(=O)Nc1cccc(NC(=O)Cc2ccc3ccccc3c2)c1 | – | inactive: 0%
64 | O=C(NCc1ccco1)c1c(O)c2cccc3c2n(c1=O)CCC3 | inconclusive: 6.31 µM [activator, full curve, poor fit] | –
65 | Cc1ccc(CN(C(=O)COc2ccc(C(C)C)cc2)C2CCS(=O)(=O)C2)o1 (stereo unspecified) | – | inactive: 4.77% [at 46.1 µM]
66 | Cc1ccc(N=Cc2cc3c(cc2O)OC(N)=C(C#N)C3c2ccccc2)cc1 (stereo unspecified) | inconclusive: 11.2 µM [inhibitor, partial curve, poor fit] | –

Reference: PubChem BioAssay AID540276 (National Center for Advancing Translational Sciences (NCATS), 2011)
